For the test, the target named is TAP-tagged ZIKV NS3 (Zika virus). Put plainly: affinity purification with mass spectrometry; tandem affinity purification (TAP): 293T cells transfected with pNTAP-A-NS3 or pNTAP-A control vector, lysed 36 h post-transfection; streptavidin resin, then calmodulin resin; eluted with calmodulin elution buffer, TCA precipitation, mass spectrometry.

Results are given in words; binding and its absence hold for the method and conditions named. Binding seen in cells or lysates may run through a third protein. Here binding means that the protein was enriched with, or labelled near, the bait; the list need not be complete.

B1: Acyl-Coenzyme A dehydrogenase, C-4 to C-12 straight chain, isoform CRA_a (protein, UniProt P11310 26-421)
chain: KANRQREPGLGFSFEFTEQQKEFQATARKFAREEIIPVAAEYDKTGEYPVPLIRRAWELGLMNTHIPENCGGLGLGTFDACLISEELAYGCTGVQTAIEGNSLGQMPIIIAGNDQQKKKYLGRMTEEPLMCAYCVTEPGAGSDVAGIKTKAEKKGDEYIINGQKMWITNGGKANWYFLLARSDPDPKAPANKAFTGFIVEADTPGIQIGRKELNMGQRCSDTRGIVFEDVKVPKENVLIGDGAGFKVAMGAFDKTRPVVAAGAVGLAQRALDEATKYALERKTFGKLLVEHQAISFMLAEMAMKVELARMSYQRAAWEVDSGRRNTYYASIAKAFAGDIANQLATDAVQILGGNGFNTEYPVEKLMRDAKIYQIYEGTSQIQRLIVAREHIDKYKN
On to B1, for which the binding entry is on record as “binds”.

B2: Medium-chain specific acyl-CoA dehydrogenase, mitochondrial (protein, UniProt P11310 26-421)
chain: KANRQREPGLGFSFEFTEQQKEFQATARKFAREEIIPVAAEYDKTGEYPVPLIRRAWELGLMNTHIPENCGGLGLGTFDACLISEELAYGCTGVQTAIEGNSLGQMPIIIAGNDQQKKKYLGRMTEEPLMCAYCVTEPGAGSDVAGIKTKAEKKGDEYIINGQKMWITNGGKANWYFLLARSDPDPKAPANKAFTGFIVEADTPGIQIGRKELNMGQRCSDTRGIVFEDVKVPKENVLIGDGAGFKVAMGAFDKTRPVVAAGAVGLAQRALDEATKYALERKTFGKLLVEHQAISFMLAEMAMKVELARMSYQRAAWEVDSGRRNTYYASIAKAFAGDIANQLATDAVQILGGNGFNTEYPVEKLMRDAKIYQIYEGTSQIQRLIVAREHIDKYKN
Turning to B2, the binding entry is given as “binds”.

B3: Transcription termination factor 2 (protein, UniProt Q9UNY4 1-1162)
chain: MEEVRCPEHGTFCFLKTGVRDGPNKGKSFYVCRADTCSFVRATDIPVSHCLLHEDFVVELQGLLLPQDKKEYRLFFRCIRSKAEGKRWCGSIPWQDPDSKEHSVSNKSQHASETFHHSSNWLRNPFKVLDKNQEPALWKQLIKGEGEEKKADKKQREKGDQLFDQKKEQKPEMMEKDLSSGLVPKKKQSVVQEKKQEEGAEIQCEAETGGTHKRDFSEIKSQQCQGNELTRPSASSQEKSSGKSQDVQRESEPLREKVTQLLPQNVHSHNSISKPQKGGPLNKEYTNWEAKETKAKDGPSIQATQKSLPQGHFQERPETHSVPAPGGPAAQAAPAAPGLSLGEGREAATSSDDEEEDDVVFVSSKPGSPLLFDSTLDLETKENLQFPDRSVQRKVSPASGVSKKVEPSDPVARRVYLTTQLKQKKSTLASVNIQALPDKGQKLIKQIQELEEVLSGLTLSPEQGTNEKSNSQVPQQSHFTKTTTGPPHLVPPQPLPRRGTQPVGSLELKSACQVTAGGSSQCYRGHTNQDHVHAVWKITSEAIGQLHRSLESCPGETVVAEDPAGLKVPLLLHQKQALAWLLWRESQKPQGGILADDMGLGKTLTMIALILTQKNQEKKEEKEKSTALTWLSKDDSCDFTSHGTLIICPASLIHHWKNEVEKRVNSNKLRVYLYHGPNRDSRARVLSTYDIVITTYSLVAKEIPTNKQEAEIPGANLNVEGTSTPLLRIAWARIILDEAHNVKNPRVQTSIAVCKLQACARWAVTGTPIQNNLLDMYSLLKFLRCSPFDEFNLWRSQVDNGSKKGGERLSILTKSLLLRRTKDQLDSTGRPLVILPQRKFQLHHLKLSEDEETVYNVFFARSRSALQSYLKRHESRGNQSGRSPNNPFSRVALEFGSEEPRHSEAADSPRSSTVHILSQLLRLRQCCCHLSLLKSALDPMELKGEGLVLSLEEQLSALTLSELRDSEPSSTVSLNGTFFKMELFEGMRESTKISSLLAELEAIQRNSASQKSVIVSQWTNMLKVVALHLKKHGLTYATIDGSVNPKQRMDLVEAFNHSRGPQVMLISLLAGGVGLNLTGGNHLFLLDMHWNPSLEDQACDRIYRVGQQKDVVIHRFVCEGTVEEKILQLQEKKKDLAKQVLSGSGESVTKLTLADLRVLFGI
Turning to B3, the binding entry is “binds”.

B4: 2ʹ,3ʹ-cyclic-nucleotide 3ʹ-phosphodiesterase (protein, UniProt P09543 1-421)
chain: MNRGFSRKSHTFLPKIFFRKMSSSGAKDKPELQFPFLQDEDTVATLLECKTLFILRGLPGSGKSTLARVIVDKYRDGTKMVSADAYKITPGARGAFSEEYKRLDEDLAAYCRRRDIRILVLDDTNHERERLEQLFEMADQYQYQVVLVEPKTAWRLDCAQLKEKNQWQLSADDLKKLKPGLEKDFLPLYFGWFLTKKSSETLRKAGQVFLEELGNHKAFKKELRQFVPGDEPREKMDLVTYFGKRPPGVLHCTTKFCDYGKAPGAEEYAQQDVLKKSYSKAFTLTISALFVTPKTTGARVELSEQQLQLWPSDVDKLSPTDNLPRGSRAHITLGCAADVEAVQTGLDLLEILRQEKGGSRGEEVGELSRGKLYSLGNGRWMLTLAKNMEVRAIFTGYYGKGKPVPTQGSRKGGALQSCTII
Regarding B4, the binding entry is on record as “binds”.

B5: 3-hydroxyacyl-CoA dehydrogenase type-2 (Q99714) (protein, UniProt Q99714 1-261)
chain: MAAACRSVKGLVAVITGGASGLGLATAERLVGQGASAVLLDLPNSGGEAQAKKLGNNCVFAPADVTSEKDVQTALALAKGKFGRVDVAVNCAGIAVASKTYNLKKGQTHTLEDFQRVLDVNLMGTFNVIRLVAGEMGQNEPDQGGQRGVIINTASVAAFEGQVGQAAYSASKGGIVGMTLPIARDLAPIGIRVMTIAPGLFGTPLLTSLPEKVCNFLASQVPFPSRLGDPAEYAHLVQAIIENPFLNGEVIRLDGAIRMQP
B5: the binding entry is “binds”.

B6: 3-hydroxyacyl-CoA dehydrogenase type-2 (Q5H928) (protein, UniProt Q99714 1-261)
chain: MAAACRSVKGLVAVITGGASGLGLATAERLVGQGASAVLLDLPNSGGEAQAKKLGNNCVFAPADVTSEKDVQTALALAKGKFGRVDVAVNCAGIAVASKTYNLKKGQTHTLEDFQRVLDVNLMGTFNVIRLVAGEMGQNEPDQGGQRGVIINTASVAAFEGQVGQAAYSASKGGIVGMTLPIARDLAPIGIRVMTIAPGLFGTPLLTSLPEKVCNFLASQVPFPSRLGDPAEYAHLVQAIIENPFLNGEVIRLDGAIRMQP
On to B6, for which the binding result is “binds”.

For the origin of these results see PMC6984649.
